Assay results reported in PubChem BioAssay AID504648 (National Center for Advancing Translational Sciences (NCATS), 2011).
Out of some 390,000 compounds screened, about 610 (0.16%) were called active. Inconclusive means that the source gave no clear call. Such entries were picked first, then a sample of the others. The call rests on the fitted dose curve; in most records, active means well fitted inhibition curve with a large enough effect; inconclusive means small, poorly fitted or top-dose-only effect, or effect the other way, or another doubt; inactive means no such curve, though single readings can be large or run the other way. A potency beside an inconclusive call is a rough fit, not a confirmed value.

Assay: Nrf2 qHTS screen for inhibitors: counterscreen for cytotoxicity
Conditions: A549 ARE-Fluc cells, CellTiter-Fluor viability, 18-24 h; series mostly up to 46 µM
Summary of the method: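 Cytotoxicity counterscreen: CellTiter-Fluor fluorescence was measured in A549 ARE_Fluc cells after 18-24 h of compound exposure in a concentration series. The subsequent BugLite luminescent read reports ARE-luciferase activity.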
Potency means the concentration at half of the fitted maximal effect.

| Structure (SMILES) | Potency |
| --- | --- |
| Cc1cccc(NC(=O)c2cccc(S(=O)(=O)N(C)c3ccccc3)c2)n1 | inconclusive: 0.146 µM [activator, full curve, poor fit] |
| COc1ccccc1NC(=O)C1=C(C)Nc2nc3ccccc3n2C1c1cccs1 (stereo not drawn) | inconclusive: 2.31 µM [falling, partial curve, poor fit] |
| CCc1ccc(CCC(=O)Nc2sc3c(c2C#N)CCCC3)o1 | inconclusive: 6.51 µM [falling, partial curve, poor fit] |
| O=C(Nc1ccn(Cc2ccccc2F)n1)c1ccc(COc2ccc(Cl)cc2Cl)o1 | inconclusive: 29.1 µM [falling, single point] |
| COc1ccc(C(=O)NCCn2cc(SCC(=O)Nc3cccc(C)c3)c3ccccc32)cc1 | inactive |
| C#CCOc1ccc(C2C3=C(CC(C)(C)CC3=O)N(CC(=O)O)C3=C2C(=O)CC(C)(C)C3)cc1 | inconclusive: 18.4 µM [activator, single point] |
| Cc1cccc(-n2ncc3c(Nc4ccc(Oc5ccc(Cl)cc5)cc4)ncnc32)c1 | inconclusive: 29.1 µM [falling, partial curve, poor fit] |
| O=C(NCCc1csc(-c2ccccc2)n1)c1ccc(Br)o1 | inactive |
| CC(C)Sc1nc(NCc2ccco2)c2c3c(sc2n1)COC(C)(C)C3 | inactive |
| Cc1cc(N2CCCCC2)nc2ccc(NC(=O)c3ccc(Br)o3)cc12 | inconclusive: 29.1 µM [falling, single point] |
| COCCc1nn2c(=O)cc(COC(=O)c3ccc(OC)c(OC)c3)nc2s1 | inactive |
| COc1ccc(C/C(=N\OC(C)=O)c2ccc(OC)cc2)cc1 | inactive |
| Cc1ccccc1-c1nc(C#N)c(N2CCC(C)CC2)o1 | inactive |
| c1ccc2nc(-c3nc4ccccc4[nH]3)ccc2c1 | inconclusive: 2.31 µM [activator, partial curve] |
| CN(C)c1ccc(C(C(=O)NC2CCCCC2)N(Cc2ccco2)C(=O)c2snc(C(N)=O)c2N)cc1 (stereo not drawn) | inconclusive: 14.6 µM [falling, partial curve] |
| Cc1c(N=N/C(C(=O)Nc2ccccc2)=C(/O)c2ccccc2)c(=O)n(-c2ccccc2)n1C | inconclusive: 16.4 µM [falling, single point] |
| CC(=O)c1c(C(C)=O)c(C)n(-c2nc(-c3ccc(C)c(C)c3)c(C)s2)c1C | inactive |
| Fc1ccc(Cn2c(SCc3ccc(F)c(C(F)(F)F)c3)nnc2C(F)(F)F)cc1 | inconclusive: 7.08 µM [activator, partial curve, poor fit] |
| O=C(Nc1nnc(-c2ccc(F)cc2)o1)c1cc(Cl)sc1Cl | inconclusive: 29.1 µM [falling, single point] |
| O=S(=O)(/C(=C\c1ccc(C(F)(F)F)cc1)c1nc2ccccc2[nH]1)c1ccccc1 | inconclusive: 29.1 µM [falling, single point] |
| Cc1ccc(-n2ncc3c(=O)n(-c4ccc(C)c(C)c4)c(-c4ccco4)nc32)cc1 | inconclusive: 29.1 µM [falling, single point] |
| CC(C)c1ccc(S(=O)(=O)c2nnn3c2nc(NCCc2ccccc2)c2sccc23)cc1 | inconclusive: 32.6 µM [falling, partial curve, poor fit] |
| CCCCCCCCNC(=O)C(CCC(=O)OCc1ccccc1)NC(C)=O (stereo not drawn) | inconclusive: 32.6 µM [activator, partial curve, poor fit] |

| Structure (SMILES) | Potency |
| --- | --- |
| COc1ccc(C(C(=O)NC2CCCCC2)N(Cc2cccs2)C(=O)Cc2c[nH]c3ccccc23)cc1 (stereo not drawn) | inconclusive: 29.1 µM [falling, single point] |
| COc1ccccc1NC(=O)c1oc2ccccc2c1NC(=O)c1cc(OC)c(OC)c(OC)c1 | inconclusive: 1.03 µM [falling, full curve, poor fit] |
| COc1ccccc1/C=C/c1nc(C#N)c(N2CCCCC2)o1 | inconclusive: 5.8 µM [activator, partial curve, poor fit] |
| Cc1ccccc1Oc1ncnc(N)c1[N+](=O)[O-] | inconclusive: 23.1 µM [falling, partial curve, poor fit] |
| Cc1ccc(NC(=O)c2ccc(Cl)c(S(=O)(=O)N3CCCCCC3)c2)nc1 | inconclusive: 18.4 µM [falling, single point] |
| N=c1c2c(ccn1CCc1ccccc1)Oc1ccc3ccccc3c1C2c1ccccc1 (stereo not drawn) | active: 3.66 µM |
| Cc1ccc(OCC(=O)N2CCCCC2)c(Br)c1 | inconclusive: 32.6 µM [activator, partial curve, poor fit] |
| Cc1noc(NS(=O)(=O)c2ccc(N/C=C/C(=O)c3cccnc3)cc2)c1C | inconclusive: 23.1 µM [falling, single point] |
| COc1cccc(/C=N/Nc2cc(C)nc(-c3ccccc3O)n2)c1O | inconclusive: 16.4 µM [falling, partial curve, poor fit] |
| Cc1cc(=O)oc(C)c1C(=O)NCCCN1CCN(c2ccccc2F)CC1 | inconclusive: 20.6 µM [activator, partial curve, poor fit] |
| Cc1cccc(CNC(=O)c2oc3c(c2C)-c2nn(Cc4ccccc4Cl)cc2CC3)c1 | inactive |
| CCc1cc2c(NCC(=O)O)ncnc2s1 | inactive |
| COc1ccc(-c2ccc(C(C)=O)cc2)cc1C1C2C=CCCC2(C)C(=O)N1Cc1ccccc1 (stereo not drawn) | inconclusive: 18.4 µM [falling, single point] |
| O=C(CN1C(=O)NC2(CCCc3ccccc32)C1=O)c1ccc(F)cc1 (stereo not drawn) | inconclusive: 6.51 µM [activator, single point] |
| O=[N+]([O-])c1c(NCCCO)cc(N2CCCCCC2)c2nonc12 | inactive |
| Cc1ccc(NC(=O)Cc2c(C(=O)O)c(C)cn2C)cc1Cl | inactive |
| COc1cc2c(cc1OC)CN(C(=O)/C=C/c1ccccc1[N+](=O)[O-])CC2 | inactive |
| CCCSc1nnc(-c2c[nH]c3ccccc23)n1C | inconclusive: 2.59 µM [activator, partial curve, poor fit] |
| O=C(CC1N=C2c3ccccc3N=C(SCc3ccc(Cl)cc3)N2C1=O)NCc1ccco1 (stereo not drawn) | inconclusive: 29.1 µM [falling, partial curve, poor fit] |
| Cc1[nH]c2ccccc2c1C(=O)C(=O)N1c2ccccc2CC1C (stereo not drawn) | inconclusive: 9.2 µM [falling, partial curve] |
| Cc1ccc(NC(=O)c2cc(S(=O)(=O)NCCC3=CCCCC3)ccc2F)cc1F | inconclusive: 23.1 µM [falling, single point] |
| CCOc1ccc(C(=O)Nc2ccccc2N2CCCC2)cc1 | inconclusive: 25.9 µM [falling, partial curve, poor fit] |
| COc1cccc(-n2c(=O)c3c(C)c(C(=O)N(C)C)sc3n(Cc3ccc(F)cc3Cl)c2=O)c1 | inactive |

| Structure (SMILES) | Potency |
| --- | --- |
| C[C@@H]1CN([C@@H](C)CO)C(=O)c2cc(N(C)C)ccc2O[C@@H]1CN(C)Cc1ccncc1 | inconclusive: 1.46 µM [activator, full curve, poor fit] |
| COc1cccc(C(=O)Nc2cccc(NC(=O)c3ccccc3Cl)c2)c1 | inactive |
| O=C(NCCCCc1ccccc1)c1cccc(NC(=O)C2CC2)c1 | inconclusive: 29.1 µM [activator, partial curve, poor fit] |
| CCOc1ccccc1NC(=O)c1cc2c(Cl)nc3ccccc3c2s1 | inactive |
| C=CCNc1nc(N2CCCCC2)c(C#N)c2c1CN(Cc1ccccc1)CC2 | inactive |
| CCOC(=O)c1[nH]cnc1N=Nc1c(O)ccc2ccccc12 | inconclusive: 23.1 µM [falling, single point] |
| CC1=C(C(=O)OC2CCCCCC2)C(c2c(F)cccc2Cl)CC(=O)N1 (stereo not drawn) | inactive |
| O=S(=O)(c1ccc(S(=O)(=O)N(Cc2cccs2)CC2CCCO2)cc1)N1CCCCC1 (stereo not drawn) | inactive |
| O=S(=O)(c1ccc(Cl)cc1)N1CCN(Cc2cccnc2)CC1 | inactive |
| CC1CC(C)CN(S(=O)(=O)c2ccc(C(=O)Nc3nnc(-c4cccs4)o3)cc2)C1 (stereo not drawn) | inconclusive: 1.12 µM [falling, partial curve, poor fit] |
| CC(C)C(=O)N1CCN(c2nc(-c3ccccc3)c3c(c2C#N)CCCC3)CC1 | inconclusive: 29.1 µM [falling, single point] |
| CCOc1ccc(-n2c(SCc3ccc(C(=O)OC)o3)nc3c([nH]c4ccccc43)c2=O)cc1 | inactive |
| O=C(CCN1C(=O)/C(=C/c2cccs2)SC1=S)N1CCCCC1 | inconclusive: 25.9 µM [falling, single point] |
| COc1cccc(/C=N/NC(=O)c2cc3c(OC)c(OC)ccc3[nH]2)c1OC | inactive |
| COc1ccc(CNc2nc3nc(C)cc(C)n3n2)cc1 | inactive |
| CCCc1nc2ccc(NC(C)=O)cc2c(=O)n1Cc1cccc(Cl)c1 | inactive |
| CCNC(=S)N(CCc1c(C)[nH]c2ccc(C)cc12)Cc1ccco1 | inconclusive: 23.1 µM [falling, partial curve, poor fit] |
| C=C(C)Cn1c(=O)c2c(nc3n2CCN3c2ccc(CC)cc2)n(C)c1=O | inactive |
| CC(C)(C)NC(=O)CSc1nc2ccc(NC(=O)CSc3nnc(N)s3)cc2s1 | inactive |
| Clc1ccc(Cn2c3c(c4ccccc42)CCc2cc4ccccc4nc2-3)cc1 | inconclusive: 29.1 µM [activator, single point] |
| COc1ccc(-c2noc(-c3ccccc3C(=O)N3CCOCC3)n2)cc1 | inconclusive: 0.116 µM [falling, full curve] |
| COC(=O)c1ccccc1NC(=O)CN(C)S(=O)(=O)c1ccc(OC)c(C)c1 | inconclusive: 8.2 µM [falling, single point] |

Compounds shown so far that have a COOH group, in the order listed:

| Structure (SMILES) | Potency |
| --- | --- |
| C#CCOc1ccc(C2C3=C(CC(C)(C)CC3=O)N(CC(=O)O)C3=C2C(=O)CC(C)(C)C3)cc1 | inconclusive: 18.4 µM [activator, single point] |
| CCc1cc2c(NCC(=O)O)ncnc2s1 | inactive |
| Cc1ccc(NC(=O)Cc2c(C(=O)O)c(C)cn2C)cc1Cl | inactive |
